Laboratory results as given in the supplement of paper PMC3334620.
Whole data set: some 33,000 sequences, median “E-score (-0.5 to 0.5)” near -0.016, cut for the highest 2% near 0.3. The list shows a part of the results.

molecular target: T1, Yer184c (UniProt P39961); assay: PBM E-score (8-mer binding enrichment) (E-score (-0.5 to 0.5)); higher = stronger / more preferred TF binding; conditions: protein concentration: 100 nM; construct: GST-full length
T1 sequence: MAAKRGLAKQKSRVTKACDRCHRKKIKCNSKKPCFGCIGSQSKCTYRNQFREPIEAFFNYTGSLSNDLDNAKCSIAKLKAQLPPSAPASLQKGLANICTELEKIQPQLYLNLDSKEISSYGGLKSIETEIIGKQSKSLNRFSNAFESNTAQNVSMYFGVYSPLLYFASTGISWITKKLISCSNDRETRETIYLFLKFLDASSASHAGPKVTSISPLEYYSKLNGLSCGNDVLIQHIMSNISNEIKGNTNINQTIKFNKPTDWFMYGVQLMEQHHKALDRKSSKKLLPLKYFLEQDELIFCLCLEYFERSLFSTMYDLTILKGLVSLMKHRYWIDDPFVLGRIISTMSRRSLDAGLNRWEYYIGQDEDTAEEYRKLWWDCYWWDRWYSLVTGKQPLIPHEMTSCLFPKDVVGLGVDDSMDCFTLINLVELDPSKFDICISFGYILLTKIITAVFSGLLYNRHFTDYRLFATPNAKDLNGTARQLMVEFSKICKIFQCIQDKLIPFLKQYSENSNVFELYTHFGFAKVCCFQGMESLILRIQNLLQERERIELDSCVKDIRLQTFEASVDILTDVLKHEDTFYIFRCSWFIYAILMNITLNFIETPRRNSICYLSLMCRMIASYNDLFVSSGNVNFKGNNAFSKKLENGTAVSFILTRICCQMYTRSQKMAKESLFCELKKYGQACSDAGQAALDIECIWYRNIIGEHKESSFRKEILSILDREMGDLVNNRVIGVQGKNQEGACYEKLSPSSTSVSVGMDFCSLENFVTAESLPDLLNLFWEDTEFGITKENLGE
Outline: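 Masliner-normalised scans of fluorescent anti-GST signal were the basis for scoring. That signal came from GST-tagged yeast transcription factors applied at about 100-200 nM to double-stranded universal all-10-mer Agilent arrays on fresh or once-stripped slides. Each ungapped eight-base word, pooled with its reverse complement, received an E-score from the Universal PBM Analysis Suite.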

Sequence | PBM E-score
AGGTCCTG | -0.162
ACGAAACG | 0.0839
CACTCAAC | 0.0203
GGTGGATA | 0.00341
TAGATAAA | 0.195
GTATCGTA | -0.0244
GCCTACGA | -0.0383
ACCACGCC | 0.0179
TCGACCGA | 0.233
CGGCCCGA | 0.28
CAACCCCC | -0.294
CGAATAAG | -0.0727
CAACACGA | 0.0672
CAAGTCCA | -0.213
AACGCAAG | 0.0455
CAATTGGA | -0.0522
ATGGTTTC | 0.0728
ACCGGGCG | 0.0765
ATGCTAGC | 0.123
AGTACTGA | 0.14
AATCAGTC | 0.0555
CAGACCGC | 0.0654
ACTATCAG | -0.12
CCAAAAAC | 0.177
AGATCTCG | 0.0488

Sequence | PBM E-score
CACATTCA | -0.143
AAGCAAGA | -0.0309
ACCATTGA | -0.0656
CTTATAGA | 0.0118
GACAATCC | 0.16
TAAGTCAA | -0.176
GAGGTCCA | -0.0521
CAAACTGG | -0.133
ACGGGGAT | 0.0139
GCAGTAGC | -0.22
AACGAATA | -0.0323
CACCCTCG | -0.032
AGGCAATA | -0.168
TTGGAAAA | 0.134
CTTGGGTC | -0.164
AGCTGTTG | 0.0365
TCGAGTAA | 0.121
AGGCGCCT | -0.0385
ATGAGAAG | -0.126
ACGCGAGC | 0.0852
AGGAGAAG | -0.155
AGCCATTC | -0.0813
CTTGTCAA | 0.184
AATAATAT | 0.333
AGTACGAC | -0.0734

Sequence | PBM E-score
CACGTGTA | -0.149
CCACATGG | -0.195
GACATCTA | 0.191
AAGTCTGA | -0.303
CGAGGCCG | -0.0804
CTAGGGAC | -0.198
CAGCCATA | -0.165
CACAGAAC | -0.13
GTGTCTCA | -0.0779
AGCTTCGC | -0.141
TATTGTGA | -0.01
CGTCCTAG | -0.125
AAAGACTA | 0.0369
ATCTAATA | 0.137
CCCCATCA | -0.217
CAGCTATC | -0.132
ACTAGACA | 0.112
CGTAGATC | 0.0355
ATCCCCAT | -0.0983
ATGTATGC | 0.0572
CCGTACGC | -0.131
CAAGGGAG | -0.00665
GCGGGAGC | -0.093
AAGCCGGT | 0.258
CCCCCCGC | -0.405

Sequence | PBM E-score
GGCAGGCC | -0.00201
GCTGTGCA | -0.166
CAAAGGTG | -0.203
GGCCAGCA | -0.189
CCAGGTTC | -0.199
AATCCTAT | 0.18
CCCAATCC | -0.211
CCATCAGC | -0.0914
GGAGACAA | 0.0634
CTTTCCTC | -0.0252
GCGACCCA | -0.17
AGAGGATA | -0.0702
ATGATCCG | 0.235
AGTGGTAC | -0.133
CCTGCCAG | -0.171
ACGTTCCG | 0.0307
GTTCCGGA | 0.438
AAAACGAC | 0.0469
ATGCAGCG | -0.0795
AGAATAGG | 0.0218
AATCAGAT | 0.152
AAGTCGGA | 0.154
TGCCGCCA | 0.116
GAAGGAAC | -0.0358
AACTAGAC | 0.175

Sequence | PBM E-score
CGTATACG | 0.0942
AGCTCGAG | -0.0838
ATCAGGCC | -0.126
GAATTTCC | 0.134
GAGCGCAC | -0.133
GTCATATA | 0.148
CGGAAGAG | 0.0611
GGATATGA | 0.0918
AAAAATAC | 0.0858
ACAAACTC | 0.11
ACCTACGG | -0.233
CTCTCGAA | -0.145
GTGAACTA | 0.0334
CACTCGAA | 0.0255
AGTAGTGA | 0.0458
AGAGGGAT | -0.346
CTCTACCA | -0.259
AGGGAGGG | -0.194
GGCTATCA | 0.131
GCGGACAA | 0.298
AGTATGCA | -0.0246
AAGAGTTG | -0.0223
CAGAGGCG | -0.23
AAGTGAAT | 0.194
CAGTCTTC | -0.152

Sequence | PBM E-score
TAGTTACA | 0.00595
CACCCGGC | 0.15
CTCGCCAG | -0.215
ACCTCAGG | -0.297
GTTCCAAC | 0.147
ACTCGCTG | -0.0118
ACCAATCG | 0.0959
AGAATGAC | -0.0794
AAAAGAAC | 0.048
CTCGATAA | 0.231
CCCCGTCG | -0.245
AGACACAT | -0.0872
GTAGCTGA | -0.104
CGAAGGTA | 0.00719
GCACAGAC | 0.193
ACATTTGG | -0.107
ATAAAGGA | -0.134
AGTCCGGA | 0.429
AGTAGCGA | -0.0699
GACCTGTA | -0.187
CCAATAAA | 0.0682
CTGGTTGA | -0.186
GGAAGCTA | 0.18
CGGTATGC | -0.0572
CACCACGA | 0.0645

Sequence | PBM E-score
AGACACAG | -0.00248
ACGGCATG | -0.078
CAGTATGA | 0.0255
AAAATAAT | 0.282
GCCCGCCC | -0.0369
GTTAACCA | 0.18
CACAGTAA | 0.106
GAAAGTGC | -0.17
GAGCGACA | -0.145
CTTTAAGA | 0.21
GCTGAGCA | -0.0795
ACCGTTCA | 0.0037
ACGCAGAC | -0.0139
ATGGGTGG | -0.259
ATGTGACG | -0.191
GTGCAAGA | 0.137
ACTCACAT | -0.255
ATTATTCC | 0.115
CTTTATAC | 0.155
CGCCAGAC | 0.096
ACAAGTAA | -0.106
CAGACTCC | -0.161
GAATACCC | -0.0329
CCGTCATC | -0.0925
ATGATTCA | 0.00877

Four records drawn at random from those above, as already listed:
Sequence | PBM E-score
CACATTCA | -0.143
CGTATACG | 0.0942
CCCCGTCG | -0.245
CAGTCTTC | -0.152

Next results.

Sequence | PBM E-score
AGATTAGA | 0.0606
AAGTTCGT | 0.0126
GAGCTGCA | -0.102
CGCGCCCC | -0.073
ATGACCTA | -0.0893
ACTAATCT | 0.0196
CATCCGCC | 0.0602
AGGCTGGA | -0.308
ACACGATC | -0.00138
TCGCGAAA | 0.0776
CCGCATCG | 0.0409
TACGAGAA | 0.0363
CTAAAATC | -0.115
TGAAATAA | 0.127
GCTTTTAA | 0.0672
CGCGTGAC | -0.107
AACAGGAG | -0.164
GTGGTACA | -0.013
CAACGGGA | 0.0915
ACCGCTTG | 0.0166
CGACATCC | 0.0211
AGATTTCC | 0.16
AAGGCAAA | -0.0584
ACGTTCTA | -0.114
CTGGTCTA | -0.212

Part of the list above, as tab-separated lines.
Sequence	PBM E-score
GCAGTAGC	-0.22
AGTGGTAC	-0.133
TGCCGCCA	0.116

More records.

Sequence | PBM E-score
GCCGACTA | 0.147
AGTAGAAT | 0.0455
GCCGGAGA | 0.29
CTGCGCTA | -0.254
CCATGACG | -0.0469
AGACGAGC | -0.188
GCCTCCAA | -0.11
CATCTGAG | -0.194
AGGGGTGC | -0.425
GATAAGCA | -0.03
ACGCAGCA | -0.106
AGGCACAC | -0.255
CTCCGCAA | 0.0458
CCATTAAA | -0.016
AGAAGATA | 0.231
CGTTTATA | 0.183
CACTGGCC | -0.193
CCTCGAGG | -0.112
CTTCCGGC | 0.343

Three entries from above, as labelled records:
AGTAGAAT
  PBM E-score: 0.0455
CGTTTATA
  PBM E-score: 0.183
CCTCGAGG
  PBM E-score: -0.112
